Experimental data from article PMC12594893.
Results are given in words; binding and its absence hold for the method and conditions named. In cells and extracts the contact can be indirect. Binding can be weak; no strength is given.

Sequences of proteins named here, by UniProt entry; tags and fusion partners are left off. A change or cut given only in a name is not applied to a line headed by its entry.
UniProt Q6ZMG9: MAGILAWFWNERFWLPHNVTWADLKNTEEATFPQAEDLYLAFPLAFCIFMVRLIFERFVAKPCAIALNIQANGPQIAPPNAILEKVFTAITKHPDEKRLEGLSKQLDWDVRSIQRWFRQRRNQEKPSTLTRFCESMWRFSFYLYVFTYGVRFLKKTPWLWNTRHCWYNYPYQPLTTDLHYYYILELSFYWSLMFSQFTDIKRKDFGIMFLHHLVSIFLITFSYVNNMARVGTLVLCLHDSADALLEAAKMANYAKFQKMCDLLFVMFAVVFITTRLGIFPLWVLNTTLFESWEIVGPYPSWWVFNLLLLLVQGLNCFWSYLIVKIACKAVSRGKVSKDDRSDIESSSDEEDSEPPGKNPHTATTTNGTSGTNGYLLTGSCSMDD

Molecular target: CERS6 Tram-Lag-CLN8 (TLC) domain (128-384), truncated CERS6 (human) (UniProt Q6ZMG9)
Assay: co-IP; truncated CERS6 (Hox domain 1-127, TLC domain 128-384) and RPN1; cells and tags not stated

binding: binds
B1: RPN1 as used in the co-immunoprecipitation with truncated CERS6 (protein, UniProt P04843 24-607)
chain: ASSEAPPLINEDVKRTVDLSSHLAKVTAEVVLAHLGGGSTSRATSFLLALEPELEARLAHLGVQVKGEDEEENNLEVRETKIKGKSGRFFTVKLPVALDPGAKISVIVETVYTHVLHPYPTQITQSEKQFVVFEGNHYFYSPYPTKTQTMRVKLASRNVESYTKLGNPTRSEDLLDYGPFRDVPAYSQDTFKVHYENNSPFLTITSMTRVIEVSHWGNIAVEENVDLKHTGAVLKGPFSRYDYQRQPDSGISSIRSFKTILPAAAQDVYYRDEIGNVSTSHLLILDDSVEMEIRPRFPLFGGWKTHYIVGYNLPSYEYLYNLGDQYALKMRFVDHVFDEQVIDSLTVKIILPEGAKNIEIDSPYEISRAPDELHYTYLDTFGRPVIVAYKKNLVEQHIQDIVVHYTFNKVLMLQEPLLVVAAFYILFFTVIIYVRLDFSITKDPAAEARMKVACITEQVLTLVNKRIGLYRHFDETVNRYKQSRDISTLNSGKKSLETEHKALTSEIALLQSRLKTEGSDLCDRVSEMQKLDAQVKELVLKSAVEAERLVAGKLKKDTYIENEKLISGKRQELVTKIDHILDAL
